Measured values from paper PMC10163288.
Some of the results follow.

B1: il10ra_site1_sap_25_mot_HHH_b1_05083_af2_000000148_0001_42_57_H_._HHH_b1_01020_0001_0000100003_0000001_0_0001 (protein)
chain: SSSSSEEELEELEKQVEKLIEEGNLREAMRVIAEAIRLAMRLGDEETLRELWELVQEIGRESSSS
B2: il10ra_site1_normal_mot_HHH_b2_03117_000000257_0001_1_18_H_._HHH_b2_06044_0001_0000100014_0000001_0 (protein)
chain: SSSSADELFRRVRELLEEASELAHNGNPEEAEKVLEEAEELVEEAGNETVLRVIRHALRLLSSSS
B3: il10ra_site1_normal_mot_HHH_b1_05099_000000057_0001_40_58_H_._HHH_b1_07262_0001_0000100008_0000002_1_af2pred_0001 (protein)
chain: SSSSSKEEEAFEKAREALERLARANNEELLKILAEDAARLLRLAGNPELAERLEEILEELRSSSS
B4: il10ra_site1_normal_mot_HHH_b1_04771_000000013_0001_40_56_H_._HHH_b2_02427_0001_0000100003_0000002_0 (protein)
chain: SSSSSDREEVLKLSQEAFRLALRGNPEEARKVLEEAEELAEELGNERALRVIEDLLRVLNSSSSS
B5: il10ra_site1_sap_10_mot_HHH_b1_02997_000000220_0001_39_52_H_._HHH_b2_06581_af2_0001_0000200006_0000001_0_0001 (protein)
chain: SSSSSEDEELIEAALRMARQAYENGNPETVRFLLWSAQFLAEEINDPELERKIEELEEELSSSSS
B6: il10ra_site1_normal_mot_HHH_b1_01011_000000096_0001_1_19_H_._HHH_b1_01367_0001_0000200014_0000002_0 (protein)
chain: SSSSSSNAERAVRFFLEAAKQIEDPEYVRLALRFARALAEDANDDELQRLVEEVEEELSSSSSSS
B7: il10ra_site1_normal_mot_HHH_b2_07746_000000186_0001_39_52_H_._HHH_b1_05626_af2_0001_0000100001_0000001_0 (protein)
chain: SSSSSSEEEKLKEILEELEELVEEGDRERFFEVYREALKLAFRTKDPEVFQRLYELARLLSSSSS
B8: il10ra_site1_sap_17_mot_HHH_b1_03279_000000242_0001_1_18_H_._2d357d39908965df4d2a4f0d1f6bb01a_0001_0001_0000500012_0000001_0_0001 (protein)
chain: SSSSDEELQEALELVLEAFRLALRGDPEEAREVLEEALELARQANDERLARQIEHMLEALHSSSS
B9: il10ra_site1_sap_10_mot_HHH_b1_05797_000000014_0001_1_19_H_._HHH_b1_08280_0001_0000100003_0000001_0_0001_af2pred_dldesign_0_af2pred (protein)
chain: SSSSSPEVEKKLAELKEKMEKAKNIDELMEIYREAKDAFFTYGEPELVELLKEIAKKIGEESSSS
B10: il10ra_site1_sap_16_mot_49468d6c54d8157f7969f91124172a68_0001_af2_000000173_0001_37_51_H_._f00c3073f43cf787293aa5685f029966_0001_1_0001_0000900033_0000001_0_000 … (protein)
chain: SSSSSAEFLVKQALRAARLVLEAGDEEETERILELARAVARNGGNPELEKEVEEVEEKLRGSSSS
B11: il10ra_site1_sap_17_mot_HHH_b2_06857_af2_000000179_0001_42_54_H_._HHH_b1_07223_af2_0001_0000800044_0000001_0_0001 (protein)
chain: SSSSDDEELVEAAIRLVEQALEHGDKEAAEFMLMAIRMLVEELGDDELERLLEELEELIERSSSS
B12: il10ra_site1_normal_mot_HHH_b2_00475_000000107_0001_44_57_H_._HHH_b1_05669_af2_0001_0000100005_0000001_1 (protein)
chain: SSSSSDQEVAELLFRAVRLHAEGNPEEAEKVVEEAQEIAEELGDEELRRYVEIALHFIRNSSSSS
B13: il10ra_site1_sap_19_mot_HHH_b2_05343_000000235_0001_19_35_H_._HHH_b1_03328_af2_0001_0000900010_0000001_0_0001 (protein)
chain: SSSSSEEEKLRELLEELEELVERGDEEKVRRLAREILRLVYQLNDPEALRLLWELFARALSSSSS
B14: il10ra_site1_sap_13_mot_ems_3hM_3349_000000004_0001_25_42_H_._32063319e58c7a3ce97db74413982e08_0001_1_0001_0000400021_0000002_0_0001 (protein)
chain: SSSSTDERFEKVKEAVERAVELQRNGDPEEARRVLEEALELAEEANDQILVRILQKLLERLSSSS
B15: il10ra_site1_normal_mot_HHH_b1_01821_000000158_0001_23_39_H_._HHH_b1_01089_0001_0000100005_0000001_0 (protein)
chain: SSSSSSDLEEEIEELLEELKQITDPREFSRVAQEALRLIFRLGDEELLRELWEIFKKWSSSSSSS
B16: il10ra_site1_normal_mot_HHH_b2_04251_af2_000000037_0001_42_56_H_._HHH_b2_03597_0001_0000200022_0000001_0_af2pred_dldesign_0_af2pred (protein)
chain: SSSSSELEALLEEIERLLDAGRLDEAKELLREAARLALEKNDPELIKRVIELAKRLEAAGSSSSS
B17: il10ra_site1_normal_mot_HHH_b1_05056_000000217_0001_1_20_H_._HHH_b1_00010_0001_0000300007_0000001_0 (protein)
chain: SSSSDEEEVEELLEEAKRLAEEGNPREASRLLQEAVRIAFEARNEELLREIWEVVREVAELSSSS
B18: il10ra_site1_sap_19_mot_HHH_b1_04514_000000156_0001_1_18_H_._HHH_b1_01679_0001_0000100001_0000001_0_0001_af2pred_0001 (protein)
chain: SSSSSSEAEKEVAKILIEVLRLNDEEAAERISHLLIRLIVEGDERLIEEIRELFEEVEENSSSSS
B19: il10ra_site1_sap_27_mot_b26a303360aa2756ef5b79665ce52f45_0001_000000179_0001_1_11_H_._HHH_b1_07223_af2_0001_0000200010_0000001_0_0001 (protein)
chain: SSSSDVEEEVERLIEEAKELLEEGDPREAARVLAKALELAYRSGDEELLRRIWELVQEIAKSSSS
B20: il10ra_site1_normal_mot_HHH_b2_07784_af2_000000103_0001_19_36_H_._HHH_b1_03293_0001_0000300017_0000001_1 (protein)
chain: SSSSEEAEELVKEVEEELRRLLEEGNFEEAYRALKEAIEQLVELGNPEAARRLSELFLRLASSSS
B21: il10ra_site1_sap_18_mot_HHH_b1_05357_000000034_0001_23_39_H_._HHH_b2_06286_0001_0000500033_0000001_0_0001 (protein)
chain: SDVVEFIARVAEKFVEELIKEAQTEEVRELLEEVKETIEEAVEKNDLEKVWEALKKAAELRKLIS
B22: il10ra_site1_sap_30_mot_HHH_b2_03425_000000200_0001_22_39_H_._HHH_b2_07962_0001_0000100002_0000001_0_0001_af2pred_0001 (protein)
chain: SSSSDLEELLELSLRFAERLLELGDPRAARRIVRAALQLARRLNDEEFLERVEELEERVNSSSSS
B23: il10ra_site1_sap_23_mot_HHH_b2_02757_000000230_0001_1_19_H_._HHH_b2_05650_0001_0000100006_0000002_0_0001_af2pred_0001 (protein)
chain: SSSSDSLEYLIRVAIKAARIALERGDPEKAQEALEIAEKSARELNDPELEREVEELLEELNSSSS
B24: il10ra_site1_normal_mot_HHH_b1_00999_000000080_0001_41_55_H_._HHH_b1_02815_0001_0000300012_0000001_0 (protein)
chain: SSSSDEEEERSEELLEELEKLLKEGDEHRFLRLVAEIARFAYRVSDEELLQAVWELAKKFGSSSS
B25: il10ra_site1_sap_16_mot_HHH_b2_00943_af2_000000149_0001_1_17_H_._HHH_b1_05691_0001_0000300036_0000001_0_0001 (protein)
chain: SSSSDLEELVRAALRLAEQAYENGDPRAARLLLRALEELLEREGNEELLEEVRRLLEELENSSSS
B26: il10ra_site1_sap_21_mot_HHH_b2_00479_000000091_0001_1_12_H_._HHH_b1_04780_af2_0001_0000100007_0000001_0_0001 (protein)
chain: SSSSSDLLQEALRLSREAFHLALRGDPERARELLEEAEELAREAGDPRLVEMIENLLKTQSSSSS
B27: il10ra_site1_normal_mot_HHH_b2_07579_000000275_0001_1_19_H_._HHH_b1_06901_0001_0000200015_0000001_0 (protein)
chain: SSSSSSDESQEIIELIREAAHIEDPEEAEKVLEEAKELAEEAGNEVALFAVEHLLRDLSSSSSSS
B28: il10ra_site1_normal_mot_HHH_b2_00622_af2_000000153_0001_40_57_H_._HHH_b1_04307_0001_0000200018_0000001_0_af2pred_0001 (protein)
chain: SSSSSDEELLRRLIKAAKRLLELGNPERARLTLRDAAVTARFLGDEELLEEIERLLEEIKSSSSS
B29: il10ra_site1_sap_16_mot_HHH_b1_06789_af2_000000041_0001_1_20_H_._HHH_b2_01747_af2_0001_0001300030_0000002_0_0001_af2pred_dldesign_0_af2pred (protein)
chain: SSSSDKNKAAADYWTEALKTAYAQGNKEAIASSLHGARTLAELINDPELKKVVDEVAAKISSSSS
B30: il10ra_site1_sap_15_mot_HHH_b1_07393_000000133_0001_21_37_H_._HHH_b2_04136_af2_0001_0000700027_0000002_0_0001 (protein)
chain: SSSSSSTEVYELVKRAAEAFADGNPEEAEELLEEAERLAREEGNFAVLFAIEHLLEAFSSSSSSS
B31: il10ra_site1_normal_mot_HHH_b1_06994_000000193_0001_40_55_H_._HHH_b1_01074_0001_0000200030_0000001_0_af2pred_0001 (protein)
chain: SSSSSEEEKRLRIQLRQVELALKLGDEELARFLLRALKRFAEEANDEEIKEEIERLEEEVNSSSS
B32: il10ra_site1_sap_29_mot_HHH_b2_05323_000000159_0001_1_18_H_._HHH_b2_02661_af2_0001_0000100001_0000001_0_0001_af2pred_dldesign_0_af2pred (protein)
chain: SSSSNIKELEKRADELLVKLYQRGDLDAVKEVATLRIKAKLEGDEELLKEAIDYAEKVLEESSSS
B33: il10ra_site1_sap_25_mot_HHH_b1_05357_000000034_0001_23_39_H_._HHH_b1_07730_0001_0000200011_0000002_0_0001_af2pred_0001 (protein)
chain: SSSSSEEEEELEEFVEELVKEFGLSEEEKRSLELHAKFALEQGIDAEVIKLALERLARMLESSSS
B34: il10ra_site1_sap_13_mot_2fa031a62b9321f410fa37cb4b35ac9e_0001_af2_000000160_0001_1_14_H_._HHH_b2_00990_af2_0001_0000500030_0000001_0_0001 (protein)
chain: SSSSDTLEVSVRFMLEAAEKLYEAGDEEHARFVLEELLRFAEHANDEEAERLIQELLEELSSSSS
B35: il10ra_site1_sap_26_mot_HHH_b2_02463_af2_000000222_0001_1_19_H_._HHH_b2_02199_af2_0001_0000400047_0000002_0_0001 (protein)
chain: SSSSSEEYKEVKEAIREAIELYKNGDPEEAQELLEELLEKLEELGNRNLVYNVEWLLRVLSSSSS
B36: il10ra_site1_normal_mot_HHH_b1_05326_000000242_0001_1_20_H_._HHH_b2_08124_0001_0000100011_0000002_0 (protein)
chain: SSSSSSDEFLRLLRRIFRLLLRGNPEEAQELLEELEELAEELNDPAARRAVEILKEAASSSSSSS
B37: il10ra_site1_sap_18_mot_HHH_b1_06789_af2_000000041_0001_1_20_H_._HHH_b2_02765_0001_0000600018_0000001_0_0001_af2pred_dldesign_0_af2pred (protein)
chain: SSIEDVEKALAYNRFLASHAKTPEAEAALAEAEEALEKLKAGEITVEEAINKLAAIARKLGALIS

Molecular target: il10ra, Q13651
Assay: yeast display titration

Apparent Kd, inactive:
B1 no binding seen
B2 no binding seen
B3 no binding seen
B4 no binding seen
B5 no binding seen
B6 no binding seen
B7 no binding seen
B8 no binding seen
B9 no binding seen
B10 no binding seen
B11 no binding seen
B12 no binding seen
B13 no binding seen
B14 no binding seen
B15 no binding seen
B16 no binding seen
B17 no binding seen
B18 no binding seen
B19 no binding seen
B20 no binding seen
B21 no binding seen
B22 no binding seen
B23 no binding seen
B24 no binding seen
B25 no binding seen
B26 no binding seen
B27 no binding seen
B28 no binding seen
B29 no binding seen
B30 no binding seen
B31 no binding seen
B32 no binding seen
B33 no binding seen
B34 no binding seen
B35 no binding seen
B36 no binding seen
B37 no binding seen

A run of entries of the results above, for reference:
Apparent Kd, inactive:
B29 no binding seen
B30 no binding seen
B31 no binding seen
